No constants are given. Whether binding was seen depends on the method and setting. Tags and fused reporters may be left off the sequences shown.

The values below come from article PMC9884297, “Iron-sulfur clusters are involved in post-translational arginylation” (Nature Communications, 2023).

This experiment has as its target Saccharomyces cerevisiae arginine transferase (ATE1), His-tagged (S. cerevisiae) (UniProt P16639). Kind of experiment: SEC; 120 mL gel filtration column, 4 °C, 50 mmol/L Tris pH 7.5, 100 mmol/L KCl, 1 mmol/L DTT, 0.7 mol/L glycerol; monomer elutes at ≈60 kDa; both purified. On the technique in general: SEC sorts molecules by how far they enter the pores of the column.

B1: Saccharomyces cerevisiae arginine transferase (ATE1), His-tagged (enzyme, UniProt P16639 1-503)
chain: MSDRFVIWAPSMHNEPAAKCGYCHGNKGGNMDQLFALDSWAHRYMNKMDVVKIENCTIGSFVEHMDVATYDRMCNMGFRRSGKFLYKVDPLRNCCRLYTIRTAPQELNMTKELKKCISRFATRITSEDYCPAAVASSDFVGKIVNAEMNSKTFYTRFEPALYSEEKYHLFVKYQEKVHQDYNNSPKSFKRFLCDTPFGPEAVLGTQESWEQLNNWQRMKPGEKLKHMGPVHECYYYEGKLIAITVSDILPSGISSVYFIWDPDYSKWSLGKLSALRDLAIIQRTNLQYYYLGYYIEDCPKMNYKANYGAEVLDVCHSKYIPLKPIQDMISRGKLFVIGEEETKVTKELYLVDSETGRGEGFPTDNVVKYKNIAEEIYGVGGCAFKSANESALELKELYGIPYEEEDLDTIYHLKEHNGHAPNGIPNVVPGLLPLWELLDIMQSGKITDLEGRLFLFEIETEGIRPLINFYSEPPNVKKRICDVIRLFGFETCMKAVILYSEQM
As for B1, the binding result was “no binding”.
